The record followed here is patent US4889860A (Nova Pharmaceutical Corporation, priority 1987, dated 1989).

This test concerns writhing response. Format: in vivo, mouse. Conditions: Table 7.

On to `CN1CC[C@]23c4c5ccc(O)c4O[C@H]2[C@@H](O)C=C[C@H]3[C@H]1C5` [Morphine, morphine, reference compound], for which the “ED50, Acetic Acid Induced Writhing in the Mouse” value is 0.50 mg/kg.
